Values quoted from earlier work, collected in patent publication USRE37355E, “6-dimethylaminomethyl-1-phenyl-cyclohexane compounds as pharmaceutical active ingredients” (priority 1995, dated 2001).

Conditions: J. Pharmacol. Exp. Ther. 267, 331 (1993); cited from earlier work

**Q.** Which inhibition of pain does the source give for `COc1cccc([C@@]2(O)CCCC[C@@H]2CN(C)C)c1.Cl` (racemic) [Tramadol, (1RS,2RS)-2[(dimethylamino)methyl]-1-(3-methoxyphenyl)cyclohexanol hydrochloride, reference compound] here?
**A.** strong inhibitor of pain
